{
  "source": "the supplement of paper PMC4683952",
  "note": "Where a name gives a salt, the structure may show the parent alone. Some of the results follow. Rule as the data show it: active = 2.5 or more and inactive = the rest. Repeats in this data set agree poorly, so a single value says little.",
  "data": [
    {"system": "Lgr5 (MarsCy1-Lgr5-EGFP, U2OS)", "assay": "cell-surface Lgr5 expression (SCi1 fluorescence, background-subtracted) relative to WT control (fold of WT control); higher = more Lgr5 at the plasma membrane", "details": "U2OS MarsCy1-Lgr5-EGFP stable; treatment time: overnight; library: Prestwick; 20 µM", "values": [
      {"molecule": "O=c1cccc2n1C[C@@H]1CNC[C@H]2C1", "note": "[Cytisine (-)]", "cell-surface Lgr5 expression": "inactive: 2.26"},
      {"molecule": "NCC1(CC(=O)O)CCCCC1", "note": "[Gabapentin]", "cell-surface Lgr5 expression": "inactive: 2.09"},
      {"molecule": "CC[C@@H](C)C(=O)O[C@H]1[C@H](O)[C@H]2[C@@H](CN3C[C@@H](C)CC[C@H]3[C@@]2(C)O)[C@@H]2C[C@]34O[C@]5(O)[C@@H](OC(=O)[C@@](C)(O)CC)CC[C@@]3(C)[C@@H]5[C@@H](OC(C)=O)[C@@H](OC(C)=O)[C@H]4[C@@]21O", "note": "[Protoveratrine A]", "cell-surface Lgr5 expression": "inactive: 1.64"},
      {"molecule": "O=c1[nH]oc2c1CCNC2", "note": "[THIP Hydrochloride]", "cell-surface Lgr5 expression": "inactive: 0.718"},
      {"molecule": "c1cncc([C@@H]2CCCCN2)c1", "note": "[Anabasine]", "cell-surface Lgr5 expression": "inactive: 1.8"},
      {"molecule": "C[C@@H]1C[C@@H]([C@H](O)CC2CC(=O)NC(=O)C2)C(=O)[C@@H](C)C1", "note": "[Cycloheximide]", "cell-surface Lgr5 expression": "inactive: 0.435"},
      {"molecule": "COc1ccc2c(c1OC)C(=O)O[C@@H]2[C@H]1c2cc3c(cc2CCN1C)OCO3", "note": "[Hydrastine hydrochloride]", "cell-surface Lgr5 expression": "active: 2.97"},
      {"molecule": "CC[C@@H](CO)NC(=O)[C@@H]1C=C2c3cccc4[nH]cc(c34)C[C@H]2N(C)C1", "note": "[Methylergometrine maleate]", "cell-surface Lgr5 expression": "inactive: 1.42"},
      {"molecule": "CN1CCC2(C)c3cc(O)ccc3N(C)C12", "note": "(single isomer, unassigned; (-)) [(-)-Eseroline fumarate salt]", "cell-surface Lgr5 expression": "inactive: 1.03"},
      {"molecule": "CCN1C[C@]2(C)CC[C@H](O)[C@]34C1[C@@H](C[C@H]23)[C@@]1(O)C[C@H](OC)[C@H]2C[C@@H]4[C@@H]1[C@H]2O", "note": "[Karakoline]", "cell-surface Lgr5 expression": "inactive: 1.91"},
      {"molecule": "CC(NC(C)(C)C)C(=O)c1cccc(Cl)c1", "note": "(stereo unspecified) [Bupropion hydrochloride]", "cell-surface Lgr5 expression": "inactive: 1.41"},
      {"molecule": "CN[C@@H]1[C@@H](O)[C@@H](O[C@@H]2[C@@H](O)[C@H](O[C@H]3O[C@H](CN)CC[C@H]3N)[C@@H](N)C[C@H]2N)OC[C@]1(C)O.CN[C@@H]1[C@@H](O)[C@@H](O[C@@H]2[C@@H](O)[C@H](O[C@H]3O[C@H]([C@@H](C)N)CC[C@H]3N)[C@@H](N)C[C@H]2N)OC[C@]1(C)O.CN[C@@H]1[C@@H](O)[C@@H](O[C@@H]2[C@@H](O)[C@H](O[C@H]3O[C@H]([C@@H](C)NC)CC[C@H]3N)[C@@H](N)C[C@H]2N)OC[C@]1(C)O", "note": "[Gentamicine sulfate]", "cell-surface Lgr5 expression": "inactive: 1.13"},
      {"molecule": "COc1ccc2c(c1O)-c1c(OC)c(OC)cc3c1[C@H](C2)N(C)CC3", "note": "[Isocorydine (+)]", "cell-surface Lgr5 expression": "inactive: 1.3"},
      {"molecule": "O=C1CC[C@@]2(O)[C@H]3Cc4ccc(O)c5c4[C@@]2(CCN3CC2CC2)[C@H]1O5", "note": "[Naltrexone hydrochloride dihydrate]", "cell-surface Lgr5 expression": "inactive: 1.62"},
      {"molecule": "NCC(CC(=O)O)c1ccc(Cl)cc1", "note": "(racemic) [Baclofen (R,S)]", "cell-surface Lgr5 expression": "inactive: 0.837"},
      {"molecule": "COc1cc(C(=O)OC2CC3CCC(C2)N3C)ccc1O", "note": "(stereo unspecified) [Fillalbin]", "cell-surface Lgr5 expression": "inactive: 2.36"},
      {"molecule": "N[C@@H]1C[C@H]1c1ccccc1", "note": "[Tranylcypromine hydrochloride]", "cell-surface Lgr5 expression": "inactive: 1.77"},
      {"molecule": "CN1[C@@H]2C[C@@H](OC(=O)[C@H](CO)c3ccccc3)C[C@H]1[C@@H]1O[C@@H]12", "note": "[Scopolamine hydrochloride]", "cell-surface Lgr5 expression": "inactive: 2.26"},
      {"molecule": "C[C@H]1CC[C@]2(NC1)O[C@H]1C[C@H]3[C@@H]4CC[C@H]5C[C@@H](O)CC[C@]5(C)[C@H]4CC[C@]3(C)[C@H]1[C@@H]2C", "note": "[Tomatidine]", "cell-surface Lgr5 expression": "active: 2.69"},
      {"molecule": "C(#CCN1CCCC1)CN1CCCC1", "note": "[Tremorine dihydrochloride]", "cell-surface Lgr5 expression": "inactive: 1.48"},
      {"molecule": "C[C@]12CCC(=O)C=C1C=C[C@@H]1[C@@H]2CC[C@@]2(C)[C@H]1CC[C@@]2(O)CCC(=O)O", "note": "[Canrenoic acid potassium salt]", "cell-surface Lgr5 expression": "inactive: 1.61"},
      {"molecule": "C=CCN1CC[C@]23c4c5ccc(O)c4O[C@H]2C(=O)CC[C@@]3(O)[C@H]1C5", "note": "[Naloxone hydrochloride]", "cell-surface Lgr5 expression": "inactive: 1.1"},
      {"molecule": "COP(=O)(OC)C(O)C(Cl)(Cl)Cl", "note": "(stereo unspecified) [Trichlorfon]", "cell-surface Lgr5 expression": "inactive: 1.1"},
      {"molecule": "C[C@]12C[C@H]3S[C@H]3C[C@@H]1CC[C@@H]1[C@@H]2CC[C@]2(C)[C@@H](O)CC[C@@H]12", "note": "[Epitiostanol]", "cell-surface Lgr5 expression": "inactive: 1.33"},
      {"molecule": "CC(=O)O[C@H]1C[C@@H]2CC[C@@H]3[C@H](CC[C@@]4(C)[C@H]3C[C@H]([N+]3(C)CCCCC3)[C@@H]4OC(C)=O)[C@@]2(C)C[C@@H]1[N+]1(C)CCCCC1", "note": "[Pancuronium bromide]", "cell-surface Lgr5 expression": "inactive: 1.92"},
      {"molecule": "COc1c2c(cc3c1OCO3)CCN(C)C2", "note": "[Hydrocotarnine hydrobromide]", "cell-surface Lgr5 expression": "inactive: 1.81"},
      {"molecule": "O=c1ccc2cc(O[C@@H]3O[C@H](CO)[C@@H](O)[C@H](O)[C@H]3O)c(O)cc2o1", "note": "[Esculin Hydrate]", "cell-surface Lgr5 expression": "inactive: 2.37"},
      {"molecule": "O=c1c2ccccc2[se]n1-c1ccccc1", "note": "[Ebselen]", "cell-surface Lgr5 expression": "inactive: 1.52"},
      {"molecule": "COc1ccc(CN2CCNCC2)c(OC)c1OC", "note": "[Trimetazidine dihydrochloride]", "cell-surface Lgr5 expression": "inactive: 1.84"},
      {"molecule": "CN1[C@@H]2CC[C@H]1C[C@@H](OC(=O)[C@H](CO)c1ccccc1)C2", "note": "[Hyoscyamine (L)]", "cell-surface Lgr5 expression": "inactive: 1.25"},
      {"molecule": "C[C@H](N)[C@H](O)c1ccc(O)c(O)c1", "note": "[Levonordefrin]", "cell-surface Lgr5 expression": "active: 3.94"},
      {"molecule": "CC(C)N(CCC(C(N)=O)(c1ccccc1)c1ccccn1)C(C)C", "note": "(stereo unspecified) [Disopyramide]", "cell-surface Lgr5 expression": "inactive: 1.32"},
      {"molecule": "CCN1C[C@]2(C)CC[C@H](OC)[C@@]34C1[C@]1(OCO[C@@]15C[C@H](OC)[C@H]1C[C@]3(O)[C@@H]5[C@H]1OC)[C@@H](OC(C)=O)[C@H]24", "note": "[Deltaline]", "cell-surface Lgr5 expression": "inactive: 1.92"},
      {"molecule": "CC[C@H]1CN2CCc3cc(OC)c(OC)cc3[C@@H]2C[C@@H]1C[C@H]1NCCc2cc(O)c(OC)cc21", "note": "[Cephaeline dihydrochloride heptahydrate]", "cell-surface Lgr5 expression": "inactive: -0.159"},
      {"molecule": "CC1=CC(=O)C2=C(C)C[C@H](O)[C@@H]3[C@H](OC(=O)[C@H]3C)[C@H]12", "note": "[Austricine]", "cell-surface Lgr5 expression": "inactive: 1.21"},
      {"molecule": "C[C@]12CC[C@@H](O)C[C@@H]1CC[C@@H]1[C@@H]2CC[C@]2(C)C(=O)CC[C@@H]12", "note": "[Androsterone]", "cell-surface Lgr5 expression": "inactive: 1.1"}
    ]}
  ]
}
